Experimental data: article PMC5996148
Where “and” joins values, the source holds several entries; their conditions need not be identical. Equal values may be shown once. The list shows a part of the results. For some assays here: The source does not settle which construct or isoform was used.

Sequences of proteins named here, by UniProt entry; tags and fusion partners are left off.
UniProt Q9GZZ9, whole entry: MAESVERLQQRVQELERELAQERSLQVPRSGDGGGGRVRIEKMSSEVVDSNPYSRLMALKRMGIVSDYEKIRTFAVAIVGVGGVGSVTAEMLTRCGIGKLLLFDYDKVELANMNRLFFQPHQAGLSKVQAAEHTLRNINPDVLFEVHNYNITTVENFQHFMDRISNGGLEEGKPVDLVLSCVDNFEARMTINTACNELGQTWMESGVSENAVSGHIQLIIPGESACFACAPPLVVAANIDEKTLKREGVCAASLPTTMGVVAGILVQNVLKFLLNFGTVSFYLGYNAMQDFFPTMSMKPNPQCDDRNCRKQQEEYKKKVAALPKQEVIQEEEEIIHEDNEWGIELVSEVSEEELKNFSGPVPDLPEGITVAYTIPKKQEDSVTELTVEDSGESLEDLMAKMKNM

Columns and labels:
Assay in all cases: protein microarray (ProtoArray v5.0), streptavidin-Alexa Fluor 647
Details in all cases: 3'-biotin; 20 mM Tris (pH 7.5), 5 mM MgCl2, 100 mM KCl, 0.1% Tween-20, A/T-rich and random oligonucleotide blockers; temperature not stated; high values mean tight binding
[1] = tested on: Transmembrane protein 192 (human)
[2] = tested on: Transmembrane protein 203 (human)
[3] = tested on: Transmembrane protein 207 (human)
[4] = tested on: Transmembrane protein 43 (human)
[5] = tested on: Transmembrane protein 86B (human)
[6] = tested on: Trypsin-2 (human)
[7] = tested on: Tryptase delta (human)
[8] = tested on: Tryptophanyl-tRNA synthetase, cytoplasmic (human)
[9] = tested on: Tubulin alpha-3 chain (human)
[10] = tested on: Tubulin-specific chaperone D (human)
[11] = tested on: Tumor protein D52 (human)
[12] = tested on: Tumor suppressor candidate 3 (human)
[13] = tested on: Type I iodothyronine deiodinase (human)
[14] = tested on: Tyrosine-protein kinase transmembrane receptor ROR1 (human)
[15] = tested on: UBADC1 (human)
[16] = tested on: UBE1C (human)
[17] = biological target: UBE1DC1 (UniProt Q9GZZ9)
[18] = tested on: UBE1L (human)
[19] = tested on: UBE2C (human)
[20] = tested on: UBE2DNL (human)

**Q.** How did the binding signal [1] turn out when “GGGAGGCTGAGGCAGG [G4-1 biotinylated (PQS2)]” was run?
**A.** -0.266 z-score

**Q.** And the binding signal [2]?
**A.** -0.33 z-score

**Q.** And the binding signal [3]?
**A.** -0.302 z-score

**Q.** And the binding signal [4]?
**A.** -0.349 z-score

**Q.** And the binding signal [5]?
**A.** -0.339 z-score

**Q.** What about the binding signal [6] of the same sequence?
**A.** -0.31 z-score

**Q.** And the binding signal [7]?
**A.** -0.315 z-score

**Q.** What about the binding signal [8] of the same sequence?
**A.** -0.314 z-score

**Q.** What about the binding signal [9] of the same sequence?
**A.** -0.305 z-score

**Q.** And the binding signal [10]?
**A.** -0.353 z-score

**Q.** And the binding signal [11]?
**A.** -0.352 z-score

**Q.** And the binding signal [12]?
**A.** -0.318 z-score

**Q.** What about the binding signal [13] of the same sequence?
**A.** -0.337 z-score

**Q.** What about the binding signal [14] of the same sequence?
**A.** -0.244 z-score

**Q.** What about the binding signal [15] of the same sequence?
**A.** -0.351 z-score

**Q.** What about the binding signal [16] of the same sequence?
**A.** -0.232 z-score

**Q.** What about the binding signal [17] of the same sequence?
**A.** -0.346 z-score

**Q.** And the binding signal [18]?
**A.** -0.298 z-score

**Q.** What about the binding signal [19] of the same sequence?
**A.** -0.364 z-score and -0.368 z-score

**Q.** What about the binding signal [20] of the same sequence?
**A.** -0.315 z-score
